The values that follow come from PubChem BioAssay AID1458 (National Center for Advancing Translational Sciences (NCATS), 2008).

The whole screen tested about 210,000 compounds, of which about 5,900 (2.8%) were called active. Roughly 5% stayed inconclusive and do not appear here. Calls come from the whole dose curve; as a rule, active = well fitted activation curve with a large enough effect; inconclusive = small, poorly fitted or top-dose-only effect; inactive = no such curve, though single readings can be large or run the other way. The entries are a selection whose mix differs from that of the whole data set. Entries without a call were filed so in the source.
Potency is the fitted concentration of half-maximal effect.

This experiment in a line: qHTS Assay for Enhancers of SMN2 Splice Variant Expression. For activity change, positive = activation: % of control where 0% means no effect. Note: nearly all actives have a fitted effect of over 55% in size. Particulars: HEK293 SMN2-luciferase splicing reporter, luminescence, 30-36 h; activity change, positive = activation: at 46.1 µM (top of the series) unless noted. In outline:
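HEK293 cells carry an SMN2 […]–luciferase reporter in which exon 7 inclusion puts luciferase in frame. Cells were plated 10-12 h before compound addition, then incubated 30-36 h at 37C. ONE-Glo luminescence was read; sodium butyrate at 4.5 mM final served as control.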
For the molecule `O=C1c2ccccc2C(=O)C1c1ccccc1`, the activity change, positive = activation was 48.9%.

Consider `CSc1ccccc1NC(=O)Nc1ccc(Cl)cc1`, for which the “activity change, positive = activation” value is inactive: -30.7%. Take `COc1ccc2[nH]c(C)c(CCN(Cc3cccs3)C(=S)Nc3cccc(F)c3)c2c1`: the “activity change, positive = activation” value is inactive: -65.7%.

As for `CCc1ccccc1N(CC(=O)OC)S(C)(=O)=O`, the activity change, positive = activation was determined as 31.2%.

Consider `CCOC(=O)NCC(C)(C)CNC(=O)OCC`, for which the activity change, positive = activation stood at 25.8%.

With `CCCCN(C)CC(O)Cn1cc(/C=C/C(=O)c2ccc(C)cc2)c2ccccc21` (stereo not given), the “activity change, positive = activation” value is inactive: -71%.

With `Cc1ccc(-n2c(SCC(=O)NNC(=S)Nc3ccccc3)nc3ccccc3c2=O)cc1`, the activity change, positive = activation amounted to 42.2%. For the molecule `CC1=CCC(COC(=O)Nc2ccccc2)CC1` (stereo not given), the Potency was active: 17.8 µM. Take `CC1CN(C(=O)Cc2ccc(-c3ccccc3)cc2)CC(C)O1` (stereo not given): the “activity change, positive = activation” value was inactive: -43.2%.

On to `CCOc1cc(CNCCO)cc(Br)c1OCc1ccc(Cl)cc1Cl`, for which the activity change, positive = activation was -63.7%. Consider `COc1ccc(/C(C)=N/NC(=O)c2nc(C)cc(C)n2)cc1`, for which the Potency was active: 11.2 µM. `CN1CCN(C(c2cccnc2)c2ccc3cccnc3c2O)CC1` (stereo not given): the activity change, positive = activation was -65.2%. The same measure, in the same setting: with `O=C(/C=C/c1ccc(Br)cc1)c1ccc(NC2=NCCCS2)cc1` the figure was -77.6%; with `CCOC(=O)c1cn(CC)c2cc(N3CCSCC3)c(F)cc2c1=O`, 51.8%. Still for that read-out and setting: the value for `Cc1c(C(=O)N2CCCC2)sc(NC(=O)c2cccs2)c1C#N` was 44.6%; that for `Cc1cc(C)n(CCC(=O)N/N=C/c2ccccc2O)n1` was -94%. The same measure, in the same setting: the value for `O=C1CN(c2ccccc2F)C(=O)CN1c1ccccc1F` was 29.2%.

In the case of `Cc1ccc(-c2nnc(Nc3ccc(OCC(N)=O)cc3)c3ccccc23)cc1S(=O)(=O)N(C)C`, the “activity change, positive = activation” value was inactive: -42.4%. On the same count and under the same terms, with `CN(C)S(=O)(=O)c1cccc(N=C2NN=C(c3ccccc3)CS2)c1` the figure was inactive: -57.7%; with `CCOc1ccc2nc(NCCNC(=O)C(C)C)c(C)cc2c1`, 17.5%; with `C=CCN(C(=O)CNC(=O)c1ccco1)C(C(=O)NC1CCCCC1)c1ccccc1` (stereo not given), 51.2%. Still for that read-out and setting: with `CN(C)S(=O)(=O)c1cccc(NC(=S)NCc2ccco2)c1` the figure was 63%.

For the molecule `O=C(Nc1ccc2oc(-c3ccccc3)nc2c1)c1ccncc1`, the “activity change, positive = activation” value is inactive: -60.8%. On the same count and under the same terms, the value for `O=C(Nc1ccccc1)Nc1nnc(CSCc2ccccc2Cl)s1` was inactive: -75.7%; that for `CN1CCN(C(=S)c2cn(Cc3cccc(F)c3)c3ccccc23)CC1` was 47.5%; that for `O=C(Nc1cccc(Cl)c1)Nc1nnc(CSCCOc2ccc(Cl)cc2)s1` was -62.5%. Regarding `COc1cccc(OCc2nc3ccccc3n2C)c1`, the Potency is active: 15.8 µM. On the same count and under the same terms, with `N#Cc1c(NC(=O)C2CCCO2)sc2c1CCCCC2` (stereo not given) the figure was active: 6.31 µM; with `O=c1oc(-c2cccs2)nc2sc3c(c12)CCCCC3`, active: 15.8 µM.

In the case of `O=C(N/N=C1\C/C(=N\NC(=O)c2ccncc2)c2ccccc21)c1ccncc1`, the activity change, positive = activation stood at 32.1%. Same read-out and setting: with `Cc1c(NC(=O)c2cc3c(s2)-c2ccccc2OC3)cccc1[N+](=O)[O-]` the figure was -41.5%; with `Cc1cccc(OCC(O)CN2CC3(C)CC2CC(C)(C)C3)c1` (stereo not given), 8.32%; with `COc1ccc(CCN2CC(C(=O)NCCc3ccccc3)CC2=O)cc1OC` (stereo not given), 102%.

Regarding `Cc1cccc(N2C(=O)CC(N3CCOCC3)C2=O)c1` (stereo not given), the activity change, positive = activation stood at 69.7%. On the same count and under the same terms, the value for `Cc1nnc2sc(-c3cccc(NC(=O)c4cccnc4)c3)nn12` was 24.1%; that for `CCOc1cc(C(=O)CSc2nnc(CNc3ccc(Cl)cc3)o2)ccc1NC(=O)CC` was -68.4%. As to `CC(C)(C)c1ccc(OCc2nc(-c3ccccn3)no2)c(Br)c1`, the Potency was active: 12.6 µM. As for `COc1ccc(CNC(=O)C(C)OC(=O)C23CC4CC(CC(O)(C4)C2)C3)cc1` (stereo not given), the activity change, positive = activation is -31.1%.

With `COc1ccc(Cl)cc1NC(=O)NC(C)c1ccncc1` (stereo not given), the activity change, positive = activation is 39.1%. Still for that read-out and setting: the value for `O=C(c1ccc(Br)s1)N1CCCC1` was 22.1%; that for `COC(=O)c1cc(Br)c(=O)n(CC(C)C)c1` was 30.5%; that for `Cc1ccc(-c2n[nH]c(=S)n2/N=C/c2ccc(C)s2)cc1` was -24.4%. The same measure, in the same setting: with `O=C(CN1C(=O)c2ccccc2S1(=O)=O)NCc1ccccn1` the figure was 42.9%. On to `Nc1nc(Nc2ccccc2F)sc1C(=O)c1ccc(Cl)cc1`, for which the Potency is active: 14.1 µM.

Turning to `CCOC(=O)N1CCN(C(=O)CS(=O)(=O)c2cn(Cc3ccc(Cl)cc3)c3ccccc23)CC1`, the “activity change, positive = activation” value is inactive: -61.1%.

Take `Cc1c(Cl)cccc1NC(=O)CN1CCN(CCN=CC2=C(O)CC(c3ccccc3)CC2=O)CC1` (stereo not given): the “activity change, positive = activation” value is inactive: -46%.

`CCCS(=O)(=O)c1nc(S(=O)(=O)c2ccc(C)cc2)c(N2CCCC2)s1`: the activity change, positive = activation came to 56.8%. Regarding `CSc1ccc(-c2ccco2)nn1`, the activity change, positive = activation came out at 82%. Consider `Cc1cncn1CCc1nc2c3ccccc3nc(SCC(=O)Nc3cccc(Cl)c3)n2n1`, for which the activity change, positive = activation is -55%. Still for that read-out and setting: with `Cc1cccc(N2CCN(C(=O)CCc3c(C)nc4ncnn4c3C)CC2)c1C` the figure was inactive: -31.8%.

For `CCOC(=O)c1ccccc1OCc1cc(/C=N/n2cnnc2)ccc1OC`, the activity change, positive = activation came out at 17.9%.

With `C=CCOC(=O)C1=C(C)N=C2SCCC(=O)N2C1c1cccs1` (stereo not given), the activity change, positive = activation is 31%.

With `CC(C)(C)C(=O)NCCc1nc2ccccc2n1CCCCOc1ccc(Cl)cc1`, the “activity change, positive = activation” value is inactive: -34.7%. Consider `CCC1(C)OC(=O)NN(c2ccc(C)cc2)C1(C)O` (stereo not given), for which the activity change, positive = activation turned out to be 19.2%.

As to `CCOC(=O)C1CCN(C(=O)C2CCN(c3nc4ccc(OC)cc4s3)CC2)CC1`, the “activity change, positive = activation” value was inactive: -45.2%.
